Consider 17 substances from patent US8614193 (dated 2013).

One data set can be described thus: general procedure: solution-phase peptide synthesis; PyBOP / diisopropylethylamine; MNBA/DMAP for macrolactonisation. The settings on record: late stage modification step.
Regarding “3-((E)-(1 S,10S,21R)-7,7-Cyclopropyl-3,6,9,19,22-pentaoxo-2-oxa-12,13-dithia-5,8,20,23-tetraaza-bicyclo[8.7.6]tricos-16-en-21-yl)-N-(2-methoxy-ethyl)-propionamide”, the step yield was 47%.

“3-((E)-(1S,9S,20R)-5-Hydroxy-6,6-cyclopropyl-3,8,18,21-tetraoxo-2-oxa-11,12-dithia-7,19,22-triaza-bicyclo[7.7.6]docos-15-en-20-yl)-N-(2,2,2-trifluoro-ethyl)-propionamide” gave a step yield of 58%. With “3-((E)-(1S,9S,20R)-5-Hydroxy-6,6-cyclopropyl-3,8,18,21-tetraoxo-2-oxa-11,12-dithia-7,19,22-triaza-bicyclo[7.7.6]docos-15-en-20-yl)-propionic acid”, the step yield was 44%. As to “3-((E)-(1S,10S,21R)-7,7-Cyclopropyl-3,6,9,19,22-pentaoxo-2-oxa-12,13-dithia-5,8,20,23-tetraaza-bicyclo[8.7.6]tricos-16-en-21-yl)-propionic acid”, the step yield turned out to be 95%.

In turn, “3-((E)-(1S,10S,21R)-7,7-Dimethyl-3,6,9,19,22-pentaoxo-2-oxa-12,13-dithia-5,8,20,23-tetraaza-bicyclo[8.7.6]tricos-16-en-21-yl)-N-(2,2,2-trifluoro-ethyl)-propionamide” gave a step yield of 22%. “3-((E)-(1S,10S,21R)-7,7-Dimethyl-3,6,9,19,22-pentaoxo-2-oxa-12,13-dithia-5,8,20,23-tetraaza-bicyclo[8.7.6]tricos-16-en-21-yl)-propionic acid”: the step yield is 83%. In turn, “3-((E)-(1S,10S,21R)-7,7-cyclopropyl-3,6,9,19,22-pentaoxo-2-oxa-12,13-dithia-5,8,20,23-tetraaza-bicyclo[8.7.6]tricos-16-en-21-yl)-N,N-diethyl-propionamide” displayed a step yield of 46%. Regarding “3-((E)-(1S,10S,21R)-7,7-cyclopropyl-3,6,9,19,22-pentaoxo-2-oxa-12,13-dithia-5,8,20,23-tetraaza-bicyclo[8.7.6]tricos-16-en-21-yl)-N-(2-morpholin-4-yl-ethyl)-propionamide”, the step yield is given as 34%. As for “3-((E)-(1S,10S,21R)-7-cyclobutyl-3,6,9,19,22-pentaoxo-2-oxa-12,13-dithia-5,8,20,23-tetraaza-bicyclo[8.7.6]tricos-16-en-21-yl)-propionic acid”, the step yield was found to be 76%. “(E)-(1S,10S,21R)-7,7-Cyclopropyl-21-(3-morpholin-4-yl-3-oxo-propyl)-2-oxa-12,13-dithia-5,8,20,23-tetraaza-bicyclo[8.7.6]tricos-16-ene-3,6,9,19,22-pentaone” showed a step yield of 27%. Turning to “(E)-(1S,10S,21R)-7,7-Cyclopropyl-21-[3-(4-methyl-piperazin-1-yl)-3-oxo-propyl]-2-oxa-12,13-dithia-5,8,20,23-tetraaza-bicyclo[8.7.6]tricos-16-ene-3,6,9,19,22-pentaone”, the step yield worked out at 47%.

The substance “N-(2-Cyano-ethyl)-3-((E)-(1S,10S,21R)-7,7-cyclopropyl-3,6,9,19,22-pentaoxo-2-oxa-12,13-dithia-5,8,20,23-tetraaza-bicyclo[8.7.6]tricos-16-en-21-yl)-propionamide” displayed a step yield of 29%.

The data set is the same for the next values; noted with them: oxidative folding step.
Substance “3-((E)-(1S,10S,21R)-7,7-Cyclopropyl-3,6,9,19,22-pentaoxo-2-oxa-12,13-dithia-5,8,20,23-tetraaza-bicyclo[8.7.6]tricos-16-en-21-yl)-propionic acid tert-butyl ester” gave an oxidative folding yield of 65%.

The substance “3-((E)-(1S,10S,21R)-7,7-Dimethyl-3,6,9,19,22-pentaoxo-2-oxa-12,13-dithia-5,8,20,23-tetraaza-bicyclo[8.7.6]tricos-16-en-21-yl)-propionic acid tert-butyl ester” showed an oxidative folding yield of 81%. “3-((E)-(1S,10S,21R)-7-cyclobutyl-3,6,9,19,22-pentaoxo-2-oxa-12,13-dithia-5,8,20,23-tetraaza-bicyclo[8.7.6]tricos-16-en-21-yl)-propionic acid tert-butyl ester” displayed an oxidative folding yield of 93%.

The data set is the same for the next values; noted with them: oxidative folding step; run 1.
Substance “3-((E)-(1S,9S,20R)-5-Hydroxy-6,6-cyclopropyl-3,8,18,21-tetraoxo-2-oxa-11,12-dithia-7,19,22-triaza-bicyclo[7.7.6]docos-15-en-20-yl)-propionic acid tert-butyl ester [XIa isomer 1]” returned an oxidative folding yield of 32%. In the case of “3-((E)-(1S,9S,20R)-5-Hydroxy-6,6-cyclopropyl-3,8,18,21-tetraoxo-2-oxa-11,12-dithia-7,19,22-triaza-bicyclo[7.7.6]docos-15-en-20-yl)-propionic acid tert-butyl ester [XIa isomer 2]”, the oxidative folding yield was 26%.
